Laboratory results as given in patent US10526280B2 (University of Pittsburgh—Of the Commonwealth System of …, priority 2014, dated 2020).
Some results were stated once for a whole list of compounds, not compound by compound.

Molecular target: T1, KCNQ2/3 channels (Homo sapiens, UniProt O43525+O43526)
T1 construct: expressed in transfected cells; host or cells: CHO cells, transient expression
Test: KCNQ2/3 currents, voltage clamp of CHO cells transiently expressing heterologous KCNQ2/3 channels
Assay type: cell-based

CCOC(=O)Nc1ccc(NCc2cccc(C(F)(F)F)c2)cc1N [NR561_50, N-[2-Amino-4-({[3-(trifluoromethyl)phenyl]methyl}amino)phenyl]ethoxycarboxamide]
potency in activating KCNQ2/3 channel currents relative to retigabine (times more potent): 4-5 times
